Results are given in words; binding and its absence hold for the method and conditions named. In cells and extracts the contact can be indirect. Some binding calls cover weakened binding; strength is not graded here. Where a sequence is shown, tags or fusion partners need not be part of it.
Columns and labels:
[1] = target: T1, VDAC3 (partner of HA-PKM2 in the S-tag pull-down of Fig. 6b) (human) (UniProt Q9Y277); assay: condition: only after 8 h 20 µM compound 8 treatment of the cells; pull-down; as a6, cells treated with 20 µM compound 8 for 8 h before harvest
T1 sequence: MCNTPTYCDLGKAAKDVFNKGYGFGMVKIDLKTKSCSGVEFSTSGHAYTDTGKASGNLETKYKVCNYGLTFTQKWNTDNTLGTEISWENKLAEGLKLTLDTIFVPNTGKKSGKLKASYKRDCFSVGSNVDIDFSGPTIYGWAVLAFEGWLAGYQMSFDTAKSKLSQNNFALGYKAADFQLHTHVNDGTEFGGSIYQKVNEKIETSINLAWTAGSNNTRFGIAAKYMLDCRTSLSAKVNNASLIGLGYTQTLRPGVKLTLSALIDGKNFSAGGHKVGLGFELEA

The chains behind the UniProt entries cited, without tags or fusion partners.
UniProt P14618: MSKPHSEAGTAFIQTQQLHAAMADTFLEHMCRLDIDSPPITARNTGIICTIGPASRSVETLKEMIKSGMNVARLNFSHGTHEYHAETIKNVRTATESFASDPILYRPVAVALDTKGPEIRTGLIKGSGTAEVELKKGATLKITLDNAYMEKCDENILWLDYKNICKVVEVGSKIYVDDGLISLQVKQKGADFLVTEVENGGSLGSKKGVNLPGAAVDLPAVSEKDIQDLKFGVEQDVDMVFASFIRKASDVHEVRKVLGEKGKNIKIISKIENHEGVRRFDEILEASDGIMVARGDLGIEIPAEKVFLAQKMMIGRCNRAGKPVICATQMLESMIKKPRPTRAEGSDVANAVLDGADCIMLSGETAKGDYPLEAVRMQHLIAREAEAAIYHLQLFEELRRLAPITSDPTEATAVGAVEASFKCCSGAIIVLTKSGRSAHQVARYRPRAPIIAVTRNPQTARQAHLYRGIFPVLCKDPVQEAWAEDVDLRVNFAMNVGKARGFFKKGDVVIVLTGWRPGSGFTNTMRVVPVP

[2] = target: T1, VDAC3 (partner of HA-PKM2 in the S-tag pull-down of Fig. 6b) (human); assay: pull-down; S-protein agarose pull-down of the S-tagged partner from whole cellular extracts (RIPA buffer) of transfected HCT116 cells, 3 h at 4 °C, western blot; Fig. 2g with or without 8 h glucose starvation
[3] = target: T2, voltage-dependent anion channel 3 (VDAC3), endogenous (human (endogenous in HCT116)) (UniProt Q9Y277); assay: co-IP; endogenous proteins; HCT116 whole cellular extracts in RIPA buffer, immunoprecipitation with anti-VDAC3 antibody or control IgG, protein A/G agarose, 4 °C, western blot; also in a second cancer cell line
T2 sequence: T1 sequence

binding [1] | binding [2] | binding [3] | Substance
no binding | binds | – | HA-tagged PKM2 (from UniProt P14618 1-531) (enzyme)
– | – | binds | PKM2, endogenous (from UniProt P14618 1-531) (enzyme)

Reference: paper PMC6382874, “Succinylation-dependent mitochondrial translocation of PKM2 promotes cell survival in response to nutritional stress” (Cell Death & Disease, 2019)
